Experimental data from patent US7718651B2, “Inhibitors of FtsZ and uses thereof” (priority 2002, dated 2010).

Test system: Vero cells
Test: Cytotoxicity in Vero cells (MTS assay)
Assay type: cell-based
Settings: for SI (IC50:MIC99): Vero IC50 / H37Rv MIC99, Table 3

SMILES	SI (IC50/MIC, Table 8)	other results
CCOC(=O)Nc1cc(NCc2ccc(S(N)(=O)=O)cc2)c2nc(-c3ccccc3)c(-c3ccccc3)nc2n1 [Compound 4427-026-15, [2,3-Diphenyl-8-(4-sulfamoyl-benzylamino)-pyrido[2,3-b]pyrazin-6-yl]-carbamic acid ethyl ester]		SI (IC50:MIC99): >16
CCOC(=O)Nc1cc(NC(C)CCCN(CC)CC)c2nc(-c3ccccc3)c(-c3ccccc3)nc2n1 (centres unmarked) [Compound A1]	21.5	
CCOC(=O)Nc1cc2c(c(N)n1)N=C(c1ccccc1)CCN2 [Compound A2]	>32	
CCOC(=O)Nc1cc(NC(C)CCCN(CC)CC)c2ncc(-c3ccc(Cl)c(Cl)c3)nc2n1.Cl.Cl (centres unmarked) [Compound A7]	0.6	
CCOC(=O)Nc1cc(N)c(N)c(NC(C)C(O)c2ccccc2)n1 (centres unmarked) [Compound A10]	>16	
CC(C)OC(=O)Nc1cc2c(c(N)n1)N=C(c1ccccc1)[C@H](C)N2 [Compound A11]	0.12	
CCOC(=O)Nc1cc2c(c(N)n1)N=C(c1ccc3c(c1)OCO3)[C@H](C)N2 [Compound A12]	0.12	
CCOC(=O)Nc1cc(NC(C)CCCN(CC)CC)c2nc(-c3ccccc3)c(-c3ccccc3)nc2n1.Cl (centres unmarked) [Compound A21]	83	
CCOC(=O)Nc1cc(NC(C)CCCN(CC)CC)c2ncc(-c3ccc(OC)cc3)nc2n1.Cl (centres unmarked) [Compound A22]	5.58	
CCOC(=O)Nc1cc(NC(C)CCCN(CC)CC)c2ncc(-c3ccc(C(F)(F)F)cc3)nc2n1 (centres unmarked) [Compound A23]		SI (ratio IC50 / MIC): 0.26
CCOC(=O)Nc1cc(NC(C)CCCN(CC)CC)c2nc(-c3ccc(F)cc3)cnc2n1 (centres unmarked) [Compound A25]		SI (ratio IC50 / MIC): 0.54
C[C@@H]1Nc2cc(NC(=O)OCc3ccccc3)nc(N)c2N=C1c1ccccc1 [Compound A26]	0.12	
CCOC(=O)Nc1cc(NCc2ccc(S(N)(=O)=O)cc2)c2nc(-c3ccccc3)c(-c3ccccc3)nc2n1 [Compound A33]	>16	
CCOC(=O)Nc1cc(NC(C)CCCN(CC)CC)c2nc(-c3ccc(Cl)cc3)cnc2n1.Cl.Cl (centres unmarked) [Compound A34]	0.36	
CCOC(=O)Nc1cc(NC(C)C(O)COc2ccccc2)c(N)c(N)n1 (centres unmarked) [Compound A35]	>80	
CCOC(=O)Nc1cc2[nH]c(-c3ccc4c(c3)OCO4)nc2c(NC(c2ccccc2)c2ccccc2)n1 [Compound A39]	>128.21	
CCCCC1=Nc2c(cc(NC(=O)OCC)nc2N)NC1C (centres unmarked) [Compound A41]	0.12	
CCOC(=O)Nc1cc2c(c(N)n1)N=C(c1ccc(OC)cc1)C(C)N2 (centres unmarked) [Compound A44]	0.12	
CCOC(=O)Nc1cc2[nH]c(-c3ccc(OC)cc3)nc2c(NC(c2ccccc2)c2ccccc2)n1 [Compound A46]	60.47	
CCOC(=O)Nc1cc2[nH]c(-c3ccccc3)nc2c(NC(c2ccccc2)c2ccccc2)n1 [Compound A52]	>16	
CCOC(=O)Nc1cc2c(c(N)n1)N=C(CN(C)c1ccccc1)CN2 [Compound A53]	<0.03	
CCOC(=O)Nc1cc(NC(C)CCCN(CC)CC)c2nc(-c3ccccc3)c(-c3ccccc3)nc2n1 (centres unmarked) [SRI-3072, [8-(4-Diethylamino-1-methyl-butylamino)-2,3-diphenyl-pyrido[2,3-b]pyrazin-6-yl]-carbamic acid ethyl ester]		SI (IC50/MIC99): 42.0; SI (IC50:MIC99): 42
CCOC(=O)Nc1cc(NC(C)C(O)COc2ccccc2)c(N)c(N)n1 (centres unmarked) [SRI-7405, [5,6-Diamino-4-(2-hydroxy-1-methyl-3-phenoxy-propylamino)-pyridin-2-yl]-carbamic acid ethyl ester]		SI (IC50:MIC99): >80
CCOC(=O)Nc1cc2c(c(N)n1)N=C(c1ccccc1)CCN2 [SRI-7614, (1-Amino-8-phenyl-6,7-dihydro-5H-2,5,9-triaza-benzocyclohepten-3-yl)-carbamic acid ethyl ester]		SI (IC50/MIC99): > 32; SI (IC50:MIC99): >32
